The text below walks through data of US20120238491A1 (THERIMUNEX PHARMACEUTICALS, INC., priority 2009, published 2012).

A short description of this data set: general procedure: peptide synthesis; H-Isoleucine-2-Chlorotrityl resin; HBTU. The settings on record: lipidation step.

Regarding “1-Peptidyl-2-arachidonoyl-3-stearoyl glyceride (pDAG); acALYDKGYTSKEQKDCVGI(DAG)”, the step yield worked out at 4%. The “final HPLC purity” value (220 nm) stood at 98.9%.
